Experimental data from PubChem BioAssay AID1508600 (Functional Genomics Laboratory (NCATS/FGL), 2020).
About 3,700 (7%) of roughly 53,000 sequences were called active.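 How the source made its calls: active means gene knockdowns whose robust z-score for IL-1 alpha signal is at least 2 or at most -2, so actives lie on both sides; inactive means the rest.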 The list shows a part of the results.

Assay: Components of the Cytosolic LPS Sensing Pathway: Gene Identification via Genome-wide siRNA Screen;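 further: robust z of the log signal after scaling to non-targeting control siRNA wells of the plate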
Conditions: RAW264.7 macrophages, IL-1a HTRF, actives lie on both sides, screened at 100 nM (by protocol), cells primed 5 h with Pam3CSK4 first
Procedure, shortened: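 Cells (RAW264.7, 1×10^4 per well) were transfected with siRNA at 100 nM and cultured 48h at 37 degrees C. Pam3CSK4 was added for 5 hours; LipidA transfection followed for 24 hour. IL-1a was then measured by HTRF.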

z-score, inactive:
GCCUACUUGUGUAUAAAGATT against Arhgap39 -0.0847, GGAUGAAGAGCAUAACAGUTT against Sft2d2 -0.95, GGUGCAAGUUUUGGUGGGATT against Etfbkmt 0.35, GGUAUUUUUACAUUCCCUUTT against Slc39a11 0.175, GGUAGAACUUAUUGUGGACTT against Ly6f -0.692, GGAACUGUCAUGACAUUUCTT against Ddt -1.62, CCCUGGGAGUUGAAUUGUUTT against Aqp6 -0.618, GCUGGCCAAAUUCUGUGGUTT against Psph 0.282, GGCAACAGCAAUGACAUCCTT against Dbnl -0.278, GCAUCUCAAGGAUCUUCGGTT against Syngr4 -0.0821, GGUGAAUGCAAGAUCACCUTT against Myl1 0.343, GCCUUGUGUGCUGUCCUCUTT against Ly6g5c -1.67, GGAAAAAGAAAGAAGGUUCTT against 4930483J18Rik -0.695, GGGACUAUUUCAACAAAGUTT against Spata31d1a -0.429, GGAGAGGAAAAUUGUAUUUTT against Alox12 -0.037, GGAGUGGUAUAAGUCGAAATT against Prph 1.09, GGAACAUUUUGGAAAUGACTT against Fbxo25 -0.625, GGUCUUGAAACUCUGAAAGTT against Sult1a1 -0.0379, GGGCUAUCGGUUGACAAAUTT against Riok2 1.67, GGAUCGUGAGCUUCUAUUATT against Gask1a 0.434, GGUUCUCCAUUCUGUUUACTT against Slc35d1 -1.19, GCAGAGGACAGGCUUACUUTT against Vwa5b2 -1.3, GGCUUGUCCUGGCAUGAUGTT against Ptprn -1.73, GGAGAAAAUGGACAGUCUATT against Twist1 -1.93, GGAUCUUGUUGGUUAUCGATT against Syn3 0.601, CGGCUUAAAUUGACAUUUCTT against Glul 0.199, CCCGUGGUAAUAGAAAACGTT against Sepsecs 0.85, GGAGGAGAUCAAAAAAAGATT against Cfl2 -0.409, CCAUACGAGUGACCAGUUGTT against Ctbp1 -0.764, CCAGACGAGGAGAACAUCATT against Samd4b -0.111, GGGAGAGCGUAAGAUCUUUTT against Tln1 0.839, GGAAGCGUAAAUAAGUGUCTT against Emp2 0.772, GGCUUGGUUUUAAAUGAUGTT against Il17rd -0.417, CCCAGCUAUGCGAUCUUAATT against Zfp946 0.017, CCUUCAGACCUCCUUAUUATT against Hgd 0.965, GGGAUUACCACCCAUCCUATT against Atp5b -0.0321, CCAAUACGAACAACUUGCATT against Krt10 -0.694, GGGAAGUGACAUAUUCUCGTT against Brf2 -0.277, CCCAUUUCCGGAGCUCACUTT against Grb10 0.4, GCAGAUAUGACGAUUAAAUTT against Pafah1b1 0.115, GCAUUCCUUGUCUGCUAUUTT against Fgd3 0.961, GAGAAGAAGCCUAACCUCATT against Ang 0.607, CCACUAGACUUCAAUGACUTT against Zeb2 -1.12, GCGGGUUAUUAACAUAUUUTT against Dlg1 -0.0709, CCUCUCCAACAACCAACUATT against Lrrc47 -0.27, CCUACUGUCUAAGAAUACATT against Olfr1138 -1.65, GGUAUCAACAUCACGAUUCTT against Mrgpra1 0.487, GGAGCUGUUGAGUGUUUAUTT against Ngly1 -0.378, GCGUGAGGUCUUGUCAUCATT against Foxn4 -0.982, GGAAUUGCUAUCUUUUGCATT against Stt3a 0.137, GGAAAACCUGCCUAGGAAATT against Rad21 -2, GGAGUUAAGAAUAACCAAUTT against Epm2aip1 -0.526, GGCCAUCAAGAGUUUCUUUTT against Nr0b1 0.876, GGCUUACAUUGACAUUAAATT against F5 0.123, GGAAUGAGUUCCUUUAAAATT against Svs5 0.119, GCUUCUAGGGAUCCAAUACTT against Ceacam20 0.0517, GAAGAUCUUGAAGCUUACUTT against Commd4 -1.92, GGAAGUCAGUAAUCCUCUGTT against Ooep 0.939, GGAUCAAACAAAUCAUCAATT against Plscr4 -0.895, GGCUAUCUCCAAUUUCAACTT against Slc46a2 0.927, GGAUCCAGAGAUUCAAUUCTT against Vcam1 0.881, CCACUAAGGUUUGAAGAAGTT against Nes 1.21, UUGGAAGUGGCCAUGUAGGTT against Gm5622 1.65, GCCUCGAUCUGAUCUAGAGTT against Dbx2 0.291, GGAGAACCGUAACAACAACTT against Cacna1a 0.692, CCCAUAAGUAUUAAAGUGGTT against Adipoq -0.867, GGAACAAAAAGUUUCCCUUTT against Dnaja3 0.541, CCUGAUUCCAAAUGUGUUUTT against Sgcb 0.158, GGAAUCCACGUUCUAGAUUTT against Ptp4a2 -1.06, GGAAGAUCAGAGAUGGACATT against Dennd1c 0.494, GGAAAUACCCUUAUUUGUGTT against Asns 0.4, GGCAUUUCUAGUUUUGUGGTT against Gpr173 -1.33, GGAGUUUGGGACCCUACUUTT against Foxo4 -1.01, GCACCACUAGAGGAAACGATT against Ccn4 -0.506, GGUCGACCUCAGAGAUCUGTT against Trat1 1.38, GCGCAAAGAUGGCUAUUGCTT against Adamts3 1.42, GCGUGUAUUCCACUCAUAATT against Setd5 -0.776, GGAUCACUGCUUACAAACGTT against Icam4 -0.104, GGUAGCUGUGAUAAAGCAUTT against Pcbd1 -1.81, GGCGACCACUUUGUCUACATT against Plekhg3 1.1, GCAUUCAAACUGCUCACGUTT against Suclg2 0.818, GGGUUAAUCAUAAAGACUGTT against Svopl 1.96, CCUGCCAAAAGUUGUGGAGTT against Uqcrc1 0.361, GGGCAUUAGGGUGGUAGCATT against Gapdhs -0.826, CGACUUCUGUUUAACUUAATT against Wdr26 0.047, GGUGUUCCUGCUCAUAUGUTT against Ecd 0.413, GCUACUUUGUCCGACUCUATT against Pigt 0.976, CCAAAUUGGGUCUAUAAGGTT against Rpl39l 0.197, GGCAUUUGAGAAUAUUGAATT against Casq1 -1.28, GAUCUGGCUGCUUCUUACCTT against Porcn -0.623, GGAAAAUACAAGUCCAUUCTT against B4galt5 -0.198, CCAACUCAUUGGAUCUUGCTT against Glmp 0.848, GCUGUGAUAGUCAAAAAACTT against Cxcl3 -1.15, GGAUCACCGGUUUCCGACUTT against Mgst2 -0.11, CGCGAGGAAGUCGAGGUAUTT against Pax2 1.17, GGAUAUUUCAGUUGGCGGGTT against Lama2 -0.158, GCGAAUCAUUGAGAACGGCTT against Dnajb8 1.1, GCAACGUGAUCCCUUCAUUTT against Slc26a7 0.0214, GGAGGACAACAGCAAAACATT against Atoh1 -1.01, CGUGAUCAGACACUUCACCTT against Olfr71 0.246, CGGUCAGGGUCCUAAAUAUTT against Txnl1 -0.869

z-score, active:
GCGGUUAUCUGCAUAUAGATT against Ahctf1 -2.47, GGAAAUCCUGAAGUUUCCUTT against Grk5 4.41, CCUAGAGGAUUCAGAUCAATT against Pnmal1 2.24, GGUUUUAGGACACCUGGUUTT against Gys1 2.13, GGAUACCCUGCUUCCAAAATT against Hpd 2.23, GGAUUUAUUGACCUCUUAATT against Sp8 2.41, AAUUCUGGACGAGGAGCAUTT against Abcc5 3.22
